Data reported in the supplement of paper PMC7017272.
± gives the standard deviation of the averaged measurements.

How the values were obtained:
UT-SCC-14 = assay: drug sensitivity score (DSS); higher = more sensitive; extreme values may be limits of the assay; details: culture condition: embedded in Matrigel; treatment time: 3 days
Method: (§1)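 HNSCC cell lines (500 cells/well, 384-well) were cultured on plastic, on top of (2D) or embedded (3D) in Matrigel or human leiomyoma matrix Myogel (500 ug/mL; Myogel 3D mixed with rat collagen I). Cells were treated for 3 days with 5 ten-fold concentrations of each drug, and viability was read by CellTiter-Glo. Viability was normalised to DMSO and benzethonium chloride controls and fitted with the FIMM DSRT pipeline to give IC50 (nM), maximal % inhibition and DSS. Suffixes _1/_2/_3 are replicates. Only inhibition-mode (IC50) fits are kept.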

UT-SCC-42A = assay: as above; details: culture condition: embedded in Matrigel; treatment time: 3 days
Method: as §1

UT-SCC-24A = assay: drug sensitivity score (DSS); higher = more sensitive; details: culture condition: embedded in Myogel + collagen I; treatment time: 3 days
Method: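 HNSCC cell lines (500 cells/well, 384-well) were cultured on plastic, on top of (2D) or embedded (3D) in Matrigel or human leiomyoma matrix Myogel (500 ug/mL; Myogel 3D mixed with rat collagen I). Cells were treated for 3 days with 5 ten-fold concentrations of each drug, and viability was read by CellTiter-Glo. Viability was normalised to DMSO (0% inhibition) and 100 uM benzethonium chloride (100% inhibition) controls and fitted with the FIMM DSRT pipeline to give IC50 (nM), maximal % inhibition and the drug sensitivity score (DSS). Suffixes _1/_2/_3 on drug names are replicates.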

**Q.** Which results are given for `COc1cc2ncnc(Nc3ccc(F)c(Cl)c3)c2cc1OCCCN1CCOCC1` [Gefitinib]?
**A.** drug sensitivity score (UT-SCC-14): 6.33 ± 4.1 DSS; drug sensitivity score (UT-SCC-42A): 5.27 ± 4.7 DSS; drug sensitivity score (UT-SCC-24A): 6.37 ± 2.8 DSS
